Reference: patent EP4700044 (dated 2024)

Key:
[1] = general procedure: Fmoc solid-phase peptide synthesis; 2-CTC resin 1.15 mmol/g; Fmoc-Lys(BOC)-Wang resin 0.5 mmol/g; Rink Amide MBHA resin 0.5 mmol/g; HOBt/DIC
[2] = general procedure: Fmoc solid-phase peptide synthesis; Rink Amide MBHA resin; HOBt/DIC; details: whole synthesis, scale of the general procedure 1.00 g resin
[3] = whole synthesis, scale of the general procedure 1.00 g resin

C18 Dicarboxylic Acid-gGlu-AEEA-AEEA-Lys(3,5 Bis[(2 bromoacetyl)amino]benzoyl)-NH2
crude purity (method not given) ([1]; late stage modification step): 50%

C18 Dicarboxylic Acid-gGlu-AEEA-AEEA-Lys(3,5-bis[(2-bromoacetyl)amino]benzoyl)-COOH
crude purity (method not given) ([1]; late stage modification step): 59%

C18 Dicarboxylic Acid-gGlu-AEEA-AEEA-Lys(3,5-bis[(2-bromoacetyl)amino]benzoyl)-OH
crude purity (method not given) ([1]; late stage modification step): 52%

C18 Dicarboxylic Acid-gGlu-AEEA-AEEA-Lys(bromoacetyl)-COOH
crude purity (method not given) [1, 3]: 57%

C18 Dicarboxylic Acid-gGlu-AEEA-AEEA-Lys-NH2
crude purity (method not given) [2]: 91%

C20 Dicarboxylic Acid-AEEA-gGlu-gGlu-Lys(bromoacetyl)-COOH
crude purity (method not given) [1, 3]: 44%

C20 Dicarboxylic Acid-gGlu-AEEA-AEEA-Lys(bromoacetyl)-COOH
crude purity (method not given) [1, 3]: 59%
